# Assay results: publication PMC12785802
# Sequences of proteins named here, by UniProt entry; tags and fusion partners are left off.
# UniProt P23769: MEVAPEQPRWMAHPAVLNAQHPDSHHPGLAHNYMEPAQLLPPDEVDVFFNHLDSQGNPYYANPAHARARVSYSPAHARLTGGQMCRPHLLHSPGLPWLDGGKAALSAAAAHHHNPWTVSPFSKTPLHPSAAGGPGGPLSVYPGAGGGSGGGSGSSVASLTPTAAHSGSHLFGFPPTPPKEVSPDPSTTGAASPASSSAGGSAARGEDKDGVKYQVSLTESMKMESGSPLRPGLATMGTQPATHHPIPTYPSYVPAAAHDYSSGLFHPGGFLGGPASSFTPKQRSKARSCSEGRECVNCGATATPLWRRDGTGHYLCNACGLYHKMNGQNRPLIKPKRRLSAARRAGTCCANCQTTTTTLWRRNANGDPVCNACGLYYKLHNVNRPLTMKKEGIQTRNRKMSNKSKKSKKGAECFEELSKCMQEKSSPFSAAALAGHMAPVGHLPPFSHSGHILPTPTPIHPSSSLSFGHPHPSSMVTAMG
# Positions count from the first letter of the chain named. Numbers in names are those of the source. Results are given in words; binding and its absence hold for the method and conditions named. In cells and extracts the contact can be indirect. Some results given as binding are weak or reduced against the parent protein; the word gives no strength.
# B1: wild-type human POU1F1 (protein, UniProt P28069 1-291)
# chain: MSCQAFTSADTFIPLNSDASATLPLIMHHSAAECLPVSNHATNVMSTATGLHYSVPSCHYGNQPSTYGVMAGSLTPCLYKFPDHTLSHGFPPIHQPLLAEDPTAADFKQELRRKSKLVEEPIDMDSPEIRELEKFANEFKVRRIKLGYTQTNVGEALAAVHGSEFSQTTICRFENLQLSFKNACKLKAILSKWLEEAEQVGALYNEKVGANERKRKRRTTISIAAKDALERHFGEQNKPSSQEIMRMAEELNLEKEVVRVWFCNRRQREKRVKTSLNQSLFSISKEHLECR
# modifications: 35S-methionine-labeled
# B2: human POU1F1 R172Q mutant (protein, UniProt P28069 1-291)
# chain: B1 chain with R172Q
# modifications: 35S-methionine-labeled
# B3: human POU1F1 E230K mutant (protein, UniProt P28069 1-291)
# chain: B1 chain with E230K
# modifications: 35S-methionine-labeled
# B4: human POU1F1 K216E mutant (protein, UniProt P28069 1-291)
# chain: B1 chain with K216E
# modifications: 35S-methionine-labeled
# Molecular target: GST-GATA2 fusion protein (full-length GATA2 fused to GST) (human) (UniProt P23769)
# Test: pull-down; GST-GATA2 (or GST) on glutathione Sepharose 4B incubated with 35S-methionine-labeled in vitro translated POU1F1s; 150 mM NaCl, 20 mM Tris-HCl (pH 7.5), 1% Triton X-100, 1 mM dithiothreitol; 3 h at 4 °C, washed three times; SDS-PAGE and autoradiography; only the target purified
row,binding,Binder
1,binds,B1
2,binds,B2
3,binds,B3
4,binds,B4
